These are yes or no findings as the source states them, for the method shown. For some of these results: In cells and extracts the contact can be indirect. Some results given as binding are weak or reduced against the parent protein; the word gives no strength.
How the values were obtained:
[1] = molecular target: T1, VE-cadherin extracellular repeat domain 1 (EC1) (UniProt P33151); experiment: SPR, immobilised cANGPTL4 (FIG. 2B)
T1 sequence (looked up): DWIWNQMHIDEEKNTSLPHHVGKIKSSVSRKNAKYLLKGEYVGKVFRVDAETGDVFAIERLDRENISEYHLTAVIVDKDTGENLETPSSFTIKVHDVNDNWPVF

Sequences of proteins named here, by UniProt entry; tags and fusion partners are left off.
UniProt P05556: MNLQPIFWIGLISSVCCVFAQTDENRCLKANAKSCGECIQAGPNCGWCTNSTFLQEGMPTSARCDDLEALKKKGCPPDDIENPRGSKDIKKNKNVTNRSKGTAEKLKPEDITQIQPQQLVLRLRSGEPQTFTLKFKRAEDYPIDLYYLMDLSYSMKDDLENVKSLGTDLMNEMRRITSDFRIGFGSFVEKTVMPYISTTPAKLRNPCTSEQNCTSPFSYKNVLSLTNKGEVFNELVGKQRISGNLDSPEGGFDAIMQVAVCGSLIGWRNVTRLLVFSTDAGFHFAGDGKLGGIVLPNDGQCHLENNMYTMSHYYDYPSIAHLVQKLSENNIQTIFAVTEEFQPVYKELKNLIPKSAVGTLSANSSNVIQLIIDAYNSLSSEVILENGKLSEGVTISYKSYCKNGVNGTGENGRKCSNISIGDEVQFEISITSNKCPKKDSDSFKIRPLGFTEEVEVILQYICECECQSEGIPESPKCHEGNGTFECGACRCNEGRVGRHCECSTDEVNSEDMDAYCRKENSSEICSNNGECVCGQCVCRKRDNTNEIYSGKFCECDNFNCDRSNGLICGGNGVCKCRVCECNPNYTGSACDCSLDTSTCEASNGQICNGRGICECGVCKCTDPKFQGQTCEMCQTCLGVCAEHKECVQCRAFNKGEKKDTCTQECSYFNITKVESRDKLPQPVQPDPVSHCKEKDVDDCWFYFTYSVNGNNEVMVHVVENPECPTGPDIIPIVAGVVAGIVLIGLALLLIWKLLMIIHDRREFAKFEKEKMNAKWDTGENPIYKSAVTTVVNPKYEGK

[2] = molecular target: T2, claudin-5 first extracellular domain (ECD1) (UniProt O00501); experiment: SPR, immobilised cANGPTL4 (FIG. 2B)
T2 sequence (looked up): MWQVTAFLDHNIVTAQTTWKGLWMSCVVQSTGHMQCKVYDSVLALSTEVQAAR

[3] = molecular target: T3, VE-cadherin (SPR analyte) (UniProt P33151); experiment: figure legend: SPR sensorgrams and PLA
T3 sequence (looked up): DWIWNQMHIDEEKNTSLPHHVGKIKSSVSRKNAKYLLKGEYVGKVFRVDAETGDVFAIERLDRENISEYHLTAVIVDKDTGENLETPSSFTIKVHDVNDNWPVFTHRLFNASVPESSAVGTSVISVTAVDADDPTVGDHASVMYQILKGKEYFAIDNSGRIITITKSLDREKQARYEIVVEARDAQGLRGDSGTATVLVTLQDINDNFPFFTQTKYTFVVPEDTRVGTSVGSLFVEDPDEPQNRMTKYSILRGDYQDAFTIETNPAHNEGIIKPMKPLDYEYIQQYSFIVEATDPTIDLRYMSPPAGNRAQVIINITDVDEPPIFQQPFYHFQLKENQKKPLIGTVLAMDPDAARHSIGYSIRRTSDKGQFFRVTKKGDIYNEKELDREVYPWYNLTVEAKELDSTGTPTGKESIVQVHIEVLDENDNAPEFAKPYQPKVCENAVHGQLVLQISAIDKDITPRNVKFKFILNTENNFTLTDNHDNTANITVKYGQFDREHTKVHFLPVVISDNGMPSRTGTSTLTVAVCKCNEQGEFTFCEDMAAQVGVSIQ

[4] = molecular target: activated integrin β1 (recognised by antibody clone Huts-21) of HMVECs (human) (UniProt P05556); experiment: co-immunoprecipitation from lysates of rh-cANGPTL4-treated HMVECs (FIG. 5A, B)

Measured: binding

B1: recombinant human cANGPTL4 (C-terminal region of angiopoietin-like 4) (ligand, UniProt Q9BY76 186-406, looked up)
chain: RDCQELFQVGERQSGLFEIQPQGSPPFLVNCKMTSDGGWTVIQRRHDGSVDFNRPWEAYKAGFGDPHGEFWLGLEKVHSITGDRNSRLAVQLRDWDGNAELLQFSVHLGGEDTAYSLQLTAPVAGQLGATTVPPSGLSVPFSTWDQDHDLRRDKNCAKSLSGGWWFGTCSHSNLNGQYFRSIPQQRQKLKKGIFWKTWRGRYYPLQATTMLIQPMAAEAAS
notes: domain: c terminal region; the tag is not specified; also called rh-cANGPTL4; rhcANGPTL4
binds: all assays above
